Assay results reported in patent US11198850B2, “Method for manufacturing telencephalon or progenitor tissue thereof” (RIKEN, priority 2013, dated 2021).
Some of these results come from one statement about several compounds together.

Legend:
[1] = test system: Human ES cells (KhES-1) aggregates; assay: Continuous formation of choroid plexus, hippocampal and cortical progenitor tissue after transient Wnt and BMP signal enhancement, immunohistostaining on day 35; assay type: cell-based; settings: 3 μM CHIR99021 together with 0.5 nM BMP4 only day 18 to day 21
[2] = test system: Human ES cells (KhES-1) aggregates; assay: Choroid plexus tissue formation in human ES cell aggregates with Wnt signal enhancer and BMP4, immunohistostaining on day 42; assay type: cell-based; settings: 3 μM CHIR99021 together with 0.5 nM BMP4, day 18 to day 42

Cc1cnc(-c2cnc(NCCNc3ccc(C#N)cn3)nc2-c2ccc(Cl)cc2Cl)[nH]1 [CHIR99021, 6-[[2-[[4-(2,4-Dichlorophenyl)-5-(5-methyl-1H-imidazol-2-yl)-2-pyrimidinyl]amino]ethyl]amino]-3-pyridinecarbonitrile]
not less than 80%: aggregates with continuous self-formation of choroid plexus, hippocampal progenitor tissue and cortical progenitor tissue in one aggregate ([1]; day 35) | aggregates containing both Foxg1::venus positive and negative neuroepithelia adjacently ([1]; days 21-27 of culture) | aggregates with self-formation of choroid plexus tissue [2]
